These are yes or no findings as the source states them, for the method shown. Some entries that bind do so weakly or less than the wild type.

The assay deals with T1, Hse1 GAT domain tethered to the C-terminal CAT fragment (Hse1-cCAT) (yeast) (UniProt P38753).
T1 sequence: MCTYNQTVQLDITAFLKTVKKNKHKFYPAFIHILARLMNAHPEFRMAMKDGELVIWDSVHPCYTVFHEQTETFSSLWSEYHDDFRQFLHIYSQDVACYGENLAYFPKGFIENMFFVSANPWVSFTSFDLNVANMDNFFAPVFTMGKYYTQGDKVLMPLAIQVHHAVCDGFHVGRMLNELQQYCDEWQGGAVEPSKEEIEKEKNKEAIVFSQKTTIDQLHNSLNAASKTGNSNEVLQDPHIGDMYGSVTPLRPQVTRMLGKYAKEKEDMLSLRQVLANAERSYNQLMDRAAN
Kind of assay: split-CAT bacterial growth selection on chloramphenicol.

B1: Vps27 GAT domain tethered to the N-terminal CAT fragment (Vps27-nCAT), wild type (protein, yeast, not shown: small tags and cut ends)
chain: IHSVDLSDEEKDSIYMFASLVEKMKSRPLNEILEDSKLQNLAQRVFASKARLNYALNDKAQKYNTLIEMNGKISEIMNIYDRLLEQQLQSINLSQQMEKKITGYTTVDISQWHRKEHFEAFQSVAQ
Consider B1, for which the binding entry is listed as “binds”.
